From the supplement of paper PMC8728848
The list shows a part of the results.

Columns and labels:
Experiment in all cases: glycan array binding signal (z-score within array); higher = stronger binding
Settings in all cases: glycan notation: IUPAC condensed, linker removed
[1] = target: Fuc(a1-3)GlcNAc
Method in brief: (§1)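 Glycan array binding is given as a within-array Z-score, which can be read as non-binding when negative. The arrays, 3228 of them, came from the Consortium for Functional Glycomics database and were retained only where the protein sequence was available. Z-scores were averaged across arrays of the same protein sequence at different concentrations or buffers and across linkers.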

[2] = target: Fuc(a1-3)[Gal(b1-4)]Glc6S
Method in brief: as §1

[3] = target: Fuc(a1-3)[Gal(b1-4)]GlcNAc
Method in brief: as §1

[4] = target: Fuc(a1-3)[Gal(b1-4)]GlcNAc(b1-2)Man
Method in brief: as §1

[5] = target: Fuc(a1-3)[Gal(b1-4)]GlcNAc(b1-2)Man(a1-3)[Fuc(a1-3)[Gal(b1-4)]GlcNAc(b1-2)Man(a1-6)]Man(b1-4)GlcNAc(b1-4)GlcNAc
Method in brief: as §1

[6] = target: Fuc(a1-3)[Gal(b1-4)]GlcNAc(b1-2)Man(a1-3)[Fuc(a1-3)[Gal(b1-4)]GlcNAc(b1-2)Man(a1-6)]Man(b1-4)GlcNAc(b1-4)[Fuc(a1-6)]GlcNAc
Method in brief: as §1

[7] = target: Fuc(a1-3)[Gal(b1-4)]GlcNAc(b1-3)Gal(b1-3)[Fuc(a1-4)]GlcNAc
Method in brief: as §1

[8] = target: Fuc(a1-3)[Gal(b1-4)]GlcNAc(b1-3)Gal(b1-4)[Fuc(a1-3)]GlcNAc
Method in brief: as §1

[9] = target: Fuc(a1-3)[Gal(b1-4)]GlcNAc(b1-3)Gal(b1-4)[Fuc(a1-3)]GlcNAc(b1-3)Gal(b1-4)[Fuc(a1-3)]GlcNAc
Method in brief: as §1

[10] = target: Fuc(a1-3)[Gal(b1-4)]GlcNAc(b1-3)GalNAc
Method in brief: as §1

[11] = target: Fuc(a1-3)[Gal(b1-4)]GlcNAc(b1-6)GalNAc
Method in brief: as §1

[12] = target: Fuc(a1-3)[Gal(b1-4)]GlcNAc(b1-6)[Gal(b1-3)GlcNAc(b1-3)]Gal(b1-4)Glc
Method in brief: as §1

[13] = target: Fuc(a1-3)[Gal(b1-4)]GlcNAc6S
Method in brief: as §1

[14] = target: Fuc(a1-3)[Gal3S(b1-4)]Glc
Method in brief: as §1

[15] = target: Fuc(a1-3)[Gal3S(b1-4)]GlcNAc
Method in brief: as §1

[16] = target: Fuc(a1-3)[Gal3S(b1-4)]GlcNAc6S
Method in brief: as §1

[17] = target: Fuc(a1-3)[GalNAc(b1-4)]GlcNAc
Method in brief: as §1

[18] = target: Fuc(a1-3)[GalNAc(b1-4)]GlcNAc6S
Method in brief: as §1

[19] = target: Fuc(a1-4)GlcNAc
Method in brief: as §1

[20] = target: Fuc(b1-3)GlcNAc
Method in brief: as §1

[21] = target: Gal(a1-2)Gal
Method in brief: as §1

[22] = target: Gal(a1-3)Gal
Method in brief: as §1

[23] = target: Gal(a1-3)Gal(b1-3)GlcNAc
Method in brief: as §1

[24] = target: Gal(a1-3)Gal(b1-3)GlcNAc(b1-2)Man
Method in brief: as §1

[25] = target: Gal(a1-3)Gal(b1-3)GlcNAc(b1-2)Man(a1-3)[Gal(a1-3)Gal(b1-3)GlcNAc(b1-2)Man(a1-6)]Man(b1-4)GlcNAc(b1-4)GlcNAc
Method in brief: as §1

[26] = target: Gal(a1-3)Gal(b1-3)GlcNAc(b1-3)GalNAc
Method in brief: as §1

[27] = target: Gal(a1-3)Gal(b1-3)GlcNAc(b1-6)GalNAc
Method in brief: as §1

[28] = target: Gal(a1-3)Gal(b1-3)[Fuc(a1-4)]GlcNAc(b1-2)Man(a1-3)[Gal(a1-3)Gal(b1-3)[Fuc(a1-4)]GlcNAc(b1-2)Man(a1-6)]Man(b1-4)GlcNAc(b1-4)GlcNAc
Method in brief: as §1

[29] = target: Gal(a1-3)Gal(b1-4)Glc
Method in brief: as §1

[30] = target: Gal(a1-3)Gal(b1-4)GlcNAc
Method in brief: as §1

[31] = target: Gal(a1-3)Gal(b1-4)GlcNAc(b1-2)Man
Method in brief: as §1

[32] = target: Gal(a1-3)Gal(b1-4)GlcNAc(b1-2)Man(a1-3)[Gal(a1-3)Gal(b1-4)GlcNAc(b1-2)Man(a1-6)]Man(b1-4)GlcNAc(b1-4)GlcNAc
Method in brief: as §1

[33] = target: Gal(a1-3)Gal(b1-4)GlcNAc(b1-3)GalNAc
Method in brief: as §1

[34] = target: Gal(a1-3)Gal(b1-4)GlcNAc(b1-6)GalNAc
Method in brief: as §1

[35] = target: Gal(a1-3)Gal(b1-4)[Fuc(a1-3)]GlcNAc
Method in brief: as §1

[36] = target: Gal(a1-3)Gal(b1-4)[Fuc(a1-3)]GlcNAc(b1-2)Man(a1-3)[Gal(a1-3)Gal(b1-4)[Fuc(a1-3)]GlcNAc(b1-2)Man(a1-6)]Man(b1-4)GlcNAc(b1-4)GlcNAc
Method in brief: as §1

[37] = target: Gal(a1-3)GalNAc
Method in brief: as §1

[38] = target: Gal(a1-3)[Gal(a1-4)]Gal(b1-4)GlcNAc
Method in brief: as §1

[39] = target: Gal(a1-4)Gal(b1-3)GlcNAc(b1-2)Man(a1-3)[Gal(a1-4)Gal(b1-3)GlcNAc(b1-2)Man(a1-6)]Man(b1-4)GlcNAc(b1-4)GlcNAc
Method in brief: as §1

[40] = target: Gal(a1-4)Gal(b1-4)Glc
Method in brief: as §1

[41] = target: Gal(a1-4)Gal(b1-4)GlcNAc
Method in brief: as §1

[42] = target: Gal(a1-4)Gal(b1-4)GlcNAc(b1-2)Man(a1-3)[Gal(a1-4)Gal(b1-4)GlcNAc(b1-2)Man(a1-6)]Man(b1-4)GlcNAc(b1-4)GlcNAc
Method in brief: as §1

[43] = target: Gal(a1-4)Gal(b1-4)GlcNAc(b1-3)Gal(b1-4)Glc
Method in brief: as §1

[44] = target: Gal(a1-4)GlcNAc
Method in brief: as §1

[45] = target: Gal(a1-6)Glc
Method in brief: as §1

[46] = target: Gal(b1-2)Gal
Method in brief: as §1

[47] = target: Gal(b1-3)Gal
Method in brief: as §1

[48] = target: Gal(b1-3)Gal(b1-4)GlcNAc
Method in brief: as §1

[49] = target: Gal(b1-3)GalNAc
Method in brief: as §1

[50] = target: Gal(b1-3)GalNAc(a1-3)[Fuc(a1-2)]Gal(b1-4)Glc
Method in brief: as §1

[51] = target: Gal(b1-3)GalNAc(a1-3)[Fuc(a1-2)]Gal(b1-4)GlcNAc
Method in brief: as §1

[52] = target: Gal(b1-3)GalNAc(b1-3)Gal
Method in brief: as §1

[53] = target: Gal(b1-3)GalNAc(b1-3)Gal(a1-4)Gal(b1-4)Glc
Method in brief: as §1

[54] = target: Gal(b1-3)GalNAc(b1-4)Gal(b1-4)Glc
Method in brief: as §1

[55] = target: Gal(b1-3)GalNAc(b1-4)[Neu5Ac(a2-3)]Gal(b1-4)Glc
Method in brief: as §1

[56] = target: Gal(b1-3)GlcNAc
Method in brief: as §1

[57] = target: Gal(b1-3)GlcNAc(a1-3)Gal(b1-4)GlcNAc
Method in brief: as §1

[58] = target: Gal(b1-3)GlcNAc(a1-6)Gal(b1-4)GlcNAc
Method in brief: as §1

[59] = target: Gal(b1-3)GlcNAc(b1-2)Man
Method in brief: as §1

[60] = target: Gal(b1-3)GlcNAc(b1-2)Man(a1-3)[Gal(b1-3)GlcNAc(b1-2)Man(a1-6)]Man(b1-4)GlcNAc(b1-4)GlcNAc
Method in brief: as §1

B1: Awp1 (Candida glabrata) (protein)
chain: MSLITIFAFLIKATLVLSLDILTPTTLTGDQTFNEDVSVVSSLTLNDGSQYLFNNLLQIAPSSASVTANALAAVSVFTFSLPPSSSLSNSGTLIISNSNTGPSTEQHIVITPNVMANTGTITLSLAHTNTDSSSTLIIDPVTFYNTGTINYESIGSETNDPSLTGNILSIGSSGRTLQNLGTINLNAANSYYLLGTITENSGSINVQKGFLYVNALDFIGNTINLSTTTALAFISPVSQVVRVRGVFFGNIIASVGSSGTFSYNTQTGILTVTTNGVYSYDIGCGYNPALMSGQQETLSFQGNPYDTFLVLVNQPIPSDLTCAAVSSSITPSSSVEPSSSVVPSSSVEPSSSVEPSSSVEPSSSVEPSSSVEPSSSVEPSSSVEPSSSVEPSSSVEPSSSVEPSSSVEPSSSVEPSSSVEPSSSVEPSSSVEPSSSVEPSSSVEPSSSVEPSSSVEPSSLIVPSSSVEPSSSVLPSSSVVPSSSVEPSTPPIPSSSVEPSSSVVPSSPAVPSSSVEPSTPPIPSSSVVSASVFDTSSTLPSSPSVPPSSVSPSTISTPSSSAAPSSFCPTCVSSGTPPAPSSSAIVPTSSAGGGNGGDNREPGAAGQPGAAGQPGAAGQPGAAGQPGAAGQPGAAGQPGAAGQPGAAGQPGAAGQPGAAGQPGAGFGVGSEQPTPGAGAGSGSADGNQSGTGSGTGNGQQGSGQAGSGQAGSGQEGSGQAGSGQAGSGQAGSGQAGSGQAGLDNTASGQSEGGQASAMDGDQSGRDGQSNSGSLLQPNAQQGTGSGTGSDIGADQASGESPGQIGDAQPGSGTDQSSGRHSLAAEARTSQSHSLAADARTRSTTRQTSVIAPDTAPGTASGTAPGTAPGTAVVTTFHGCGTVNHKGMINILLALALLVLL
glycan array binding signal (z-score) [1]: -1.65
glycan array binding signal (z-score) [2]: 0.558
glycan array binding signal (z-score) [3]: -1.05
glycan array binding signal (z-score) [4]: -1.84
glycan array binding signal (z-score) [5]: 0.304
glycan array binding signal (z-score) [6]: 2.28
glycan array binding signal (z-score) [7]: -0.386
glycan array binding signal (z-score) [8]: -1.82
glycan array binding signal (z-score) [9]: -1.77
glycan array binding signal (z-score) [10]: -0.439
glycan array binding signal (z-score) [11]: -0.218
glycan array binding signal (z-score) [12]: -0.237
glycan array binding signal (z-score) [13]: -0.066
glycan array binding signal (z-score) [14]: 2.03
glycan array binding signal (z-score) [15]: 0.794
glycan array binding signal (z-score) [16]: 1.54
glycan array binding signal (z-score) [17]: 1.36
glycan array binding signal (z-score) [18]: 0.022
glycan array binding signal (z-score) [19]: -0.995
glycan array binding signal (z-score) [20]: -0.685
glycan array binding signal (z-score) [21]: -0.059
glycan array binding signal (z-score) [22]: 1.31
glycan array binding signal (z-score) [23]: 0.139
glycan array binding signal (z-score) [24]: 0.906
glycan array binding signal (z-score) [25]: -0.035
glycan array binding signal (z-score) [26]: 2.21
glycan array binding signal (z-score) [27]: -1.4
glycan array binding signal (z-score) [28]: 1.01
glycan array binding signal (z-score) [29]: 0.848
glycan array binding signal (z-score) [30]: -0.142
glycan array binding signal (z-score) [31]: -0.277
glycan array binding signal (z-score) [32]: 0.087
glycan array binding signal (z-score) [33]: 0.368
glycan array binding signal (z-score) [34]: 0.573
glycan array binding signal (z-score) [35]: 0.717
glycan array binding signal (z-score) [36]: 0.15
glycan array binding signal (z-score) [37]: -0.832
glycan array binding signal (z-score) [38]: 0.211
glycan array binding signal (z-score) [39]: -0.58
glycan array binding signal (z-score) [40]: 2.6
glycan array binding signal (z-score) [41]: 1.02
glycan array binding signal (z-score) [42]: 1.64
glycan array binding signal (z-score) [43]: 0.176
glycan array binding signal (z-score) [44]: -2.03
glycan array binding signal (z-score) [45]: 0.381
glycan array binding signal (z-score) [46]: -1.15
glycan array binding signal (z-score) [47]: -0.227
glycan array binding signal (z-score) [48]: 0.709
glycan array binding signal (z-score) [49]: 1.08
glycan array binding signal (z-score) [50]: 3.43
glycan array binding signal (z-score) [51]: -0.352
glycan array binding signal (z-score) [52]: -0.493
glycan array binding signal (z-score) [53]: 1.18
glycan array binding signal (z-score) [54]: 0.327
glycan array binding signal (z-score) [55]: -0.686
glycan array binding signal (z-score) [56]: 0.587
glycan array binding signal (z-score) [57]: 0.742
glycan array binding signal (z-score) [58]: -0.788
glycan array binding signal (z-score) [59]: -1.17
glycan array binding signal (z-score) [60]: 0.766
